In PubChem BioAssay AID1259415 (National Center for Advancing Translational Sciences (NCATS), 2018):
The whole screen tested about 410,000 compounds, of which about 18,000 (4.4%) were called active. The shares of active, inactive and inconclusive entries below differ from those in the screen. No stated cut-off is given here; in the data, active means activity change below about -60%; inconclusive means no clear call, values can overlap the other calls; inactive means above about -39%.

Test: qHTS Assay for inhibitors of the human cytomegalovirus (HCMV)
Conditions: HFF cells, HCMV-luciferase reporter, 72 h; at 57.5 µM; active compounds read low
In short: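 Cell-based, HFFs, 1000 cells/well, 16 h 37C; cpds in DMSO + HCMV-luc, MOI 1 PFU/cell; 72 h 37C; OneGlo luminescence after 5 min RT; norm. to buffer vs Salinomycin 10uM.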
On the % scale 0 is the no-effect control and ±100 the full control effect.

Row | SMILES | activity change, negative = inhibition
1 | CC(C)NCC(O)COC1CCC(C(C)(C)C)CC1 (configuration not stated) | inconclusive: -40.9%
2 | O=C(COc1ccc(Br)cc1)Nc1ccc(NC(=O)c2ccccc2)cc1 | active: -68.5%
3 | Cc1ccc(NC(=O)CSc2nc3c([nH]c4ccccc43)c(=O)n2-c2ccccc2)c(C)c1 | active: -65.4%
4 | NC(=O)Cc1ccc(Nc2nnc(-c3ccc(O)cc3)c3ccccc23)cc1 | inconclusive: -40.9%
5 | COCCN(C(=O)CCC(=O)Nc1cc(C)on1)C(C(=O)NC(C)(C)C)c1ccccc1Cl (configuration not stated) | active: -62.5%
6 | COc1ccc(-c2ccc3c(N)c(C(=O)Nc4cc(F)ccc4C)sc3n2)cc1 | inactive: 21.7%
7 | O=C(COC(=O)CCc1ccc(S(=O)(=O)N2CCCCC2)cc1)Nc1cccc2ccccc12 | active: -106%
8 | CCc1ccc(NC(=O)Nc2cccc(OC)c2)cc1 | inconclusive: -51.4%
9 | CCCCN(C(=O)C(C)Oc1ccc(Br)cc1)c1c(N)n(Cc2ccccc2)c(=O)[nH]c1=O (configuration not stated) | inactive: -5.46%
10 | CN(C)N1C(=O)CC(NNC(=O)c2ccncc2)C1=O (configuration not stated) | inactive: 15.8%
11 | COc1cccc(N/C(SCc2ccccc2C)=C(/C#N)C(=O)NCc2cccs2)c1 | active: -80.3%
12 | COc1cc(C)c(NC(=S)Nc2ccc(Cl)c(Cl)c2)cc1OC | inconclusive: -50.6%
13 | Cc1cc(C)c2c(ccc3ccccc32)n1 | inactive: -11.7%
14 | COC(=O)c1ccc(/C=C(\C#N)C(=O)NC(C)c2ccccc2)cc1 (configuration not stated) | active: -95.4%
15 | CCCCN(C)Cc1c(C)[nH]c2ccc(OCC)cc2c1=O | inconclusive: -57.6%
16 | Cc1ccc(N(C)C(=O)c2cc(S(=O)(=O)N3CCCCC3)c[nH]2)cc1 | inconclusive: -45%
17 | CCOc1ccc(NS(=O)(=O)c2csc(C(N)=O)c2)cc1 | inconclusive: -55.6%
18 | COCCCNC(=O)[C@H](Cc1ccccc1)NC(=O)CC[C@H]1O[C@@H](n2ccc(=O)[nH]c2=O)[C@H](O)[C@@H]1O | inactive: -5.77%
19 | Cc1ccc(C(O)(CCN2CCCCC2)c2ccccc2)cc1 (configuration not stated) | inconclusive: -43.1%
20 | Cc1ccc(P(=S)(c2ccc(C)o2)N2CCOCC2)o1 | inconclusive: -57.3%
21 | COc1ccc(C(=O)Nc2ccccc2C(=O)NC(Cc2ccc(O)cc2)C(=O)NNC(=O)c2ccccc2Cl)cc1 (configuration not stated) | inconclusive: -48.2%
22 | COc1ccc(N2C(=O)C3CCCN3C2c2ccc(F)cc2)cc1Cl (configuration not stated) | inactive: 14.4%

Some of these compounds in order of number of heavy atoms, smallest number first.
Row | SMILES | activity change, negative = inhibition
17 | CCOc1ccc(NS(=O)(=O)c2csc(C(N)=O)c2)cc1 | inconclusive: -55.6%
15 | CCCCN(C)Cc1c(C)[nH]c2ccc(OCC)cc2c1=O | inconclusive: -57.6%
6 | COc1ccc(-c2ccc3c(N)c(C(=O)Nc4cc(F)ccc4C)sc3n2)cc1 | inactive: 21.7%
21 | COc1ccc(C(=O)Nc2ccccc2C(=O)NC(Cc2ccc(O)cc2)C(=O)NNC(=O)c2ccccc2Cl)cc1 (configuration not stated) | inconclusive: -48.2%

Later entries.

Row | SMILES | activity change, negative = inhibition
23 | CCOC(=O)c1c(C)[nH]c(C(=O)/C(C#N)=C/c2ccc(OCC)cc2)c1C | inconclusive: -51.3%
24 | Cc1ccc(C)c(Nc2ccc(C(=O)NCCc3ccccc3)cn2)c1 | inconclusive: -40.4%
25 | CCC(C)(C)NS(=O)(=O)c1cc(CN2C(=O)c3cccnc3C2=O)ccc1OC | inconclusive: -43%
26 | CCOc1ccc(NC(=S)N(CCc2c(C)[nH]c3ccc(C)cc23)Cc2ccco2)cc1 | inconclusive: -56.8%
27 | CC1=C(C(=O)O)N2C(=O)[C@@H](NC(=O)[C@H](N)c3ccc(O)cc3)[C@H]2SC1 | inconclusive: -47.7%
28 | CC(C)NC(=O)CSc1nnc(-c2ccc(F)cc2)c2ccccc12 | inconclusive: -41.9%
29 | CC1=C(C(=O)N2CCCC(N3CCN(c4ccccc4C)CC3)C2)OCCO1 (configuration not stated) | inconclusive: -46.8%
30 | Clc1ccc2c(N/N=C/c3cccnc3)ccnc2c1 | inconclusive: -53.5%
31 | O=C(CNC(=O)c1ccco1)NNC(=O)c1ccc(Br)cc1 | inactive: -4.75%
32 | Cc1cc(Cl)ccc1C(=O)C1CCCN(C(=O)CCn2cncn2)C1 (configuration not stated) | inconclusive: -53.2%
33 | CCOc1cc(C(=O)N(CC)CC(=O)Nc2ccc3c(c2)OCCO3)ccc1OC | inactive: 18.8%
34 | COc1ccc(NC(=O)c2ccc(-c3csc(C)n3)cc2)cc1 | inconclusive: -54.3%
35 | Clc1ccc(-c2cn3nc4c(nc3n2)CCCC4)cc1 | inconclusive: -46%
36 | CCOC(=O)CNS(=O)(=O)c1cc(-c2nnc(Nc3ccc4c(c3)OCO4)c3ccccc23)ccc1C | active: -65.2%
37 | Cc1ccc(C(=O)OCC(=O)NCCC2=CCCCC2)s1 | inconclusive: -44.9%
38 | CCC(C(=O)NC1CC1)n1nc(C)c2c(C)n(-c3ccc(C)cc3)nc2c1=O (configuration not stated) | inconclusive: -56.6%
39 | CN1CCN(c2ccc(Cl)cc2NC(=O)c2cc(=O)[nH]c3ccccc23)CC1 | active: -98.4%
40 | O=[N+]([O-])c1ccccc1S(=O)(=O)NCCSc1ccccc1 | inconclusive: -47.4%
41 | CC(C)CNc1nnnc2c1sc1nc(N3CCOCC3)c3c(c12)CC(C)(C)SC3 | inconclusive: -43.8%
42 | CC(C)C(NC(=O)CN(c1ccc2c(c1)OCCO2)S(=O)(=O)c1ccccc1)C(C)C | active: -60.5%
43 | COc1cccc(CNC(=O)Cn2nc(C)c3c(C)n(-c4ccc(C)cc4)nc3c2=O)c1OC | inconclusive: -46.8%
44 | O=C(COc1ccccc1)N/N=C/c1ccc([N+](=O)[O-])o1 | active: -71%

Row | SMILES | activity change, negative = inhibition
45 | COC(=O)C1=C(CSc2nc3ccccc3o2)NC(=O)NC1c1cc(C)ccc1C (configuration not stated) | inconclusive: -43.7%
46 | CCOc1ccc(CC2S/C(=N/N=C/c3ccco3)NC2=O)cc1 (configuration not stated) | inactive: -13.6%
47 | Cc1cc(C)cc(OC(=O)c2snnc2C)c1 | inactive: 11.1%
48 | COc1cccc(C2Nc3ccc4ccccc4c3C3=C2C(=O)CC(C)(C)C3)c1OCC(=O)O (configuration not stated) | inconclusive: -51.3%
49 | O=C(/C=C/Sc1ccccc1)c1ccccc1 | active: -83.3%
50 | O=C(NCCc1ccc(Cl)cc1)C1CCC(CNc2nc(=S)[nH]c3ccccc23)CC1 (configuration not stated) | active: -81.8%
51 | CC(=O)c1c(C)[nH]c(C(=O)OCc2c(F)cccc2Cl)c1C | active: -61.5%
52 | O=C(Oc1ccc(C(=S)N2CCCCC2)cc1)c1ccccc1 | inactive: -12.9%
53 | COC1CCC(OC2CC(C3(C)CCC4(CC(O)C(C)C(C(C)/C=C(\C)C(=O)C(C)CC(C)C(=O)O)O4)O3)OC3(OC(C4OC(O)(CO)C(C)CC4C)CC3C)C2C)OC1C (configuration not stated) | active: -97.6%
54 | CC(C(=O)Nc1cc([N+](=O)[O-])ccc1Cl)N1CCN(c2ccccc2)CC1 (configuration not stated) | inconclusive: -49.5%
55 | CCN1CCN(CCNC(=O)CCCn2nc(C)c3c(C)n(-c4ccc(C)cc4)nc3c2=O)CC1 | active: -66.6%
56 | COc1ccc(-c2csc(C(O)c3ccccc3)n2)cc1 (configuration not stated) | inconclusive: -42.5%
57 | CCc1nc2c(cnn2-c2ccc(F)cc2)c(=O)n1-c1ccc(N2CCC(C)CC2)cc1 | inconclusive: -59.4%
58 | CC1=CN2C(=N)/C(=C/c3ccc([N+](=O)[O-])o3)C(=O)N=C2S1 | active: -95.8%
59 | S=C1NC[C@H](CC2CCCCC2)N1CC1CCCCC1 | inconclusive: -59.2%
60 | O=C1NC(c2cccc(OCc3ccccc3)c2)Nc2ccccc21 (configuration not stated) | inconclusive: -58.4%
61 | CN(CC(=O)Nc1ccc(Cl)c(C(F)(F)F)c1)Cc1cc(=O)n2ccsc2n1 | inconclusive: -59.3%
62 | COC(=O)c1cccc(NC(=O)CSc2nc3cccnc3n2C)c1 | inconclusive: -56%
63 | COc1cccc(NC(=S)N2CCc3cc(OC)c(OC)cc3C2)c1 | inconclusive: -43.4%
64 | CCC(Sc1nnc(-c2ccc(C)c(Cl)c2)n1CC)C(=O)Nc1nccs1 (configuration not stated) | inconclusive: -45.4%
65 | CC(C)CC(N)c1csc(Nc2ccccn2)n1 (configuration not stated) | inconclusive: -44.2%
66 | CCCOc1ccc(C(F)(F)F)cc1NC(=O)c1cc(C)on1 | inactive: 1.08%

Row | SMILES | activity change, negative = inhibition
67 | C(=C\c1ccccc1)/CN1CCN(C(c2cc3ccccc3o2)c2nnnn2C2CCCCC2)CC1 (configuration not stated) | inactive: 21.6%
68 | C=CCC1NS(=O)(=O)OC(COC)C1C (configuration not stated) | inconclusive: -43%
69 | CCCC(=O)OCC(=O)Nc1ccccc1C#N | inconclusive: -44.3%
70 | CC1(c2nc3ccccc3[nH]2)CCC(=O)N1C1CC1 (configuration not stated) | inactive: 18.7%
71 | Cc1ccccc1CNC(=O)C1CCCN(S(=O)(=O)N(C)c2ccc(F)cc2)C1 (configuration not stated) | inconclusive: -48.5%
72 | COc1ccc(C2C(C(=O)/C=C/c3ccco3)=C(O)C(=O)N2CCN2CCOCC2)cc1OC (configuration not stated) | inactive: -33.8%
73 | Cc1ccc(-c2n[nH]c(Cc3ccccc3)n2)cc1 | inactive: 0%
74 | CCOC(=O)C(CC)/C(C)=N\NC(=O)c1ccccc1O (configuration not stated) | active: -90.4%
75 | O=S(=O)(c1ccccc1)c1ccc(C(F)(F)F)cn1 | inactive: 2.6%
76 | COc1cc(CCC(=O)NCC2CCCO2)cc(OC)c1OC (configuration not stated) | inactive: -1.29%
77 | COc1ccc(C(=O)Oc2cc(C)[nH]c(=O)c2[N+](=O)[O-])cc1 | inconclusive: -44%
78 | Cc1ccc(CN(c2ccc(C(=O)NCC3CCCO3)cc2)S(C)(=O)=O)cc1 (configuration not stated) | inconclusive: -43.8%
79 | Cn1nc(CC(=O)NC2CCCCC2)c2ccccc2c1=O | inactive: 1.59%
80 | CC(C)CCN(Cc1ccco1)C(=O)c1cc2c(Cl)nc3ccccc3c2s1 | inactive: -13.7%
81 | CC(C)(Oc1ccc(C2CC2(Cl)Cl)cc1)C(=O)O (configuration not stated) | inactive: -0.36%
82 | CN1CCN(c2nnc(-c3ccc(Cl)cc3)c3ccccc23)CC1 | inconclusive: -48.3%
83 | COc1ccc(C2CCc3cc(OC)c(OC)cc3C2NC=O)cc1OC (configuration not stated) | inactive: -22.1%
84 | Cc1cc2c(OCC(O)CNC3CCCCC3)cccc2[nH]1 (configuration not stated) | inconclusive: -50.2%
85 | COC(=O)c1sc2ccccc2c1NC(=O)c1ccc(S(=O)(=O)N2CC(C)CC(C)C2)cc1 (configuration not stated) | inconclusive: -58%
86 | CCCCN(CC)CCNc1c(NC2CCN(C(=O)OCC)CC2)c(=O)c1=O | inconclusive: -57.3%
87 | CNC(=O)Oc1ccc(-c2cn3cc(Cl)ccc3n2)cc1 | inconclusive: -42.2%

Structural class: those above containing a tert-butyl group (2)
Row | SMILES | activity change, negative = inhibition
1 | CC(C)NCC(O)COC1CCC(C(C)(C)C)CC1 (configuration not stated) | inconclusive: -40.9%
5 | COCCN(C(=O)CCC(=O)Nc1cc(C)on1)C(C(=O)NC(C)(C)C)c1ccccc1Cl (configuration not stated) | active: -62.5%
